Measured values taken from PubChem BioAssay AID540256 (National Center for Advancing Translational Sciences (NCATS), 2011).
The campaign covered roughly 300,000 compounds. About 3,700 (1.2%) were called active. This list was built around the results that the source calls inconclusive (neither active nor inactive); the mix of calls is not that of the screen. Calls follow the shape of the full dose curve; tested in HEK293 cells. Where the call is inconclusive, the potency comes from a doubtful curve fit.

Experiment: qHTS for Inhibitors of binding or entry into cells for Lassa Virus; also: nearly all actives have a fitted effect of over 50% in size
Conditions: Lassa virus pseudotype entry inhibition, cell reporter; series mostly up to 37.9 µM
Potency is read from the fitted curve at half-maximal effect.

Row | SMILES | Potency
1 | c1cc2c(cc1NC1CCCCCC1)OCO2 | inactive
2 | O=C(Cn1cnc2c(cnn2-c2ccccc2)c1=O)N1CCCc2ccccc21 | inconclusive: 23.1 µM [inhibitor, single point]
3 | CCN1C(=O)CC(C(=O)Nc2ccc(OC)cc2)SC1=Nc1ccc(C)c(C)c1 (stereo not drawn) | inactive
4 | N#CC1=C(N)C(C#N)(C#N)[C@H](c2ccoc2)[C@H]2CN(Cc3ccccc3)CC=C12 | inactive
5 | NS(=O)(=O)c1cccc(NC(=O)CSc2nnc(C3CC3)n2Cc2ccccc2)c1 | inconclusive: 35.5 µM [activator, single point]
6 | Cc1ccc(SCC(=O)Nc2ccc3oc(-c4cccc(C)c4)nc3c2)cc1 | inconclusive: 6.31 µM [activator, partial curve, poor fit]
7 | COc1cccc(C(=O)N2CCC(C(=O)NCc3ccc(C)cc3)CC2)c1 | inconclusive: 6.31 µM [inhibitor, single point]
8 | COc1ccc(C)cc1NC(=O)N1CCCc2ccccc21 | inconclusive: 11.2 µM [inhibitor, single point]
9 | COc1ccccc1N1CCN(C(=O)CSc2nc3ccccc3o2)CC1 | inactive
10 | C/C(=N\NC(N)=O)c1c(F)cccc1F | inactive
11 | CCCCOP(=O)(OCCCC)C(Nc1ccc(C(=O)OCC)cc1)c1ccncc1 (stereo not drawn) | inconclusive: 35.5 µM [inhibitor, single point]
12 | O=C(NCCNc1ccc([N+](=O)[O-])cc1C(F)(F)F)c1ccc(F)cc1 | inconclusive: 35.5 µM [inhibitor, single point]
13 | O=C(Nc1nc(-c2ccccc2)c(-c2ccccc2)s1)c1ccc(S(=O)(=O)N(CCCl)CCCl)cc1 | active: 5.01 µM
14 | COc1cc(CN=C(C)c2c(O)n(C)c(=O)n(C)c2=O)cc(OC)c1 | inconclusive: 35.5 µM [inhibitor, single point]
15 | COc1ccc(NC(=O)C(c2ccc(OC)cc2)N(C)C(=O)CNC(C)=O)cc1 (stereo not drawn) | inconclusive: 0.73 µM [activator, full curve, poor fit]
16 | O=C(Nc1ccc2c(c1)N(C1CCCC1)C(=O)c1ccccc1S2)c1ccccc1 | active: 2.82 µM
17 | CN(C)CCCOC(=O)c1sc2ccccc2c1Cl | inactive
18 | Cc1nc(N2CCC(C)CC2)c(C#N)c(C)c1[N+](=O)[O-] | inconclusive: 0.891 µM [inhibitor, single point]
19 | NC(=O)c1ccc2nc(NC(=O)c3ccc(N)cc3)sc2c1 | inconclusive: 14.1 µM [inhibitor, single point]
20 | CN1CCN(c2ccccc2NC(=O)c2ccc(-c3ccc(Cl)c(Cl)c3)o2)CC1 | inconclusive: 20 µM [inhibitor, partial curve, poor fit]
21 | CCCCCC(=O)N/N=C(\C)c1ccc(NC(=O)c2ccco2)cc1 | active: 3.55 µM
22 | Cc1ccc(-c2nnc(SCC(=O)N3CCCC3)o2)cc1C | inconclusive: 12.6 µM [inhibitor, partial curve]
23 | Cc1ccc2[nH]cc(CCNC(=O)Nc3ccccc3)c2c1 | inconclusive: 4.11 µM [inhibitor, full curve]

By substructure: the compounds so far containing a cyano group
Row | SMILES | Potency
4 | N#CC1=C(N)C(C#N)(C#N)[C@H](c2ccoc2)[C@H]2CN(Cc3ccccc3)CC=C12 | inactive
18 | Cc1nc(N2CCC(C)CC2)c(C#N)c(C)c1[N+](=O)[O-] | inconclusive: 0.891 µM [inhibitor, single point]

More entries

Row | SMILES | Potency
24 | COCCNC(=O)c1cn(C)c(=O)c2cc(OC)c(OC)cc12 | inactive
25 | CC(=O)c1cnn(-c2nc3c(C)cccc3s2)c1C | inconclusive: 35.5 µM [activator, single point]
26 | O=C(NC1CCCC1)c1ccc2c(c1)N(Cc1ccc(F)cc1)C(=O)c1ccccc1S2 | inconclusive: 5.62 µM [activator, single point]
27 | COc1cc(CNn2c(C)n[nH]c2=S)cc(Cl)c1OCC(=O)NC(C)(C)C | inconclusive: 8.91 µM [inhibitor, partial curve, poor fit]
28 | CCc1cccc(NC(=O)CCS(=O)(=O)c2ccc(C)cc2)c1 | inconclusive: 11.2 µM [activator, single point]
29 | CCc1ccc(C2c3c(n[nH]c3C)C(=O)N2c2ccc(C)cc2)cc1 (stereo not drawn) | inactive
30 | Cc1cccc(-c2cc3nc(C)cc(C)n3n2)c1 | inconclusive: 35.5 µM [inhibitor, single point]
31 | CN(C(=O)c1cc2c(=O)n3ccccc3nc2n1C)C1CCCCC1 | inconclusive: 35.5 µM [inhibitor, single point]
32 | Cc1cc(-c2cc(-c3ccc(Cl)cc3)nc(N)c2C#N)co1 | inconclusive: 12.6 µM [inhibitor, partial curve]
33 | Cc1ccc(S(=O)(=O)N2CCc3cc4c(cc3C2C)OCCCO4)cc1 (stereo not drawn) | inconclusive: 22.4 µM [inhibitor, single point]
34 | O=c1oc2ccc(Br)cc2cc1-c1nc2ccccc2o1 | inactive
35 | CCOC(=O)Nc1ccc2c(c1)Cc1cc([N+](=O)[O-])ccc1-2 | inconclusive: 2.24 µM [activator, partial curve, poor fit]
36 | CCN(Cc1ccncc1)C(=O)c1ccc(C)c(S(=O)(=O)N2CCCCC2)c1 | inactive
37 | COc1ccc(C(=O)COC(=O)CCCC(=O)NC2CCCCC2)cc1 | inactive
38 | Cc1ccc(N2CCN(C(=O)c3nn(C)c4c3CSc3ccccc3-4)CC2C)cc1 (stereo not drawn) | inconclusive: 11.2 µM [activator, partial curve, poor fit]
39 | O=C1N=C(N2CCOCC2)S/C1=C\c1ccc(OS(=O)(=O)c2ccccc2)cc1 | inconclusive: 29.1 µM [inhibitor, single point]
40 | CCCCNC(=O)CSc1nc2n[nH]c(C)c2c(=N)n1-c1ccccc1CC | inconclusive: 7.94 µM [inhibitor, partial curve, poor fit]
41 | O=C(/C=C\Nc1cccc(F)c1)c1cccs1 | active: 11.2 µM
42 | CCN(CC)c1ccc(NC(=S)NC(=O)Cc2ccccc2)cc1 | inconclusive: 4.11 µM [inhibitor, full curve, poor fit]
43 | OC(CCN1CCCCC1)(c1ccccc1)c1ccccc1 | inactive
44 | COc1ccc(N(CC(=O)Nc2ccc(OC)cc2OC)S(=O)(=O)c2ccccc2)cc1 | inconclusive: 10 µM [inhibitor, partial curve]
45 | Cc1ccc(-c2nnc(Nc3ccc4c(c3)nc(C)n4C)c3ccccc23)cc1 | inconclusive: 16.4 µM [inhibitor, partial curve, poor fit]
46 | Cc1cc(OCCn2cnc3ccccc3c2=O)ccc1[N+](=O)[O-] | inconclusive: 0.398 µM [activator, full curve]

4 entries from above, ordered by count of non-hydrogen atoms, smallest number first:
Row | SMILES | Potency
32 | Cc1cc(-c2cc(-c3ccc(Cl)cc3)nc(N)c2C#N)co1 | inconclusive: 12.6 µM [inhibitor, partial curve]
28 | CCc1cccc(NC(=O)CCS(=O)(=O)c2ccc(C)cc2)c1 | inconclusive: 11.2 µM [activator, single point]
37 | COc1ccc(C(=O)COC(=O)CCCC(=O)NC2CCCCC2)cc1 | inactive
44 | COc1ccc(N(CC(=O)Nc2ccc(OC)cc2OC)S(=O)(=O)c2ccccc2)cc1 | inconclusive: 10 µM [inhibitor, partial curve]

(more compounds)

Row | SMILES | Potency
47 | CCCOC(=O)/C(C(N)=NCc1ccccc1)=C(\O)OCCC | inconclusive: 14.6 µM [inhibitor, single point]
48 | COc1ccccc1N1CCN(C(=O)CSc2nc(-c3ccc(C(C)C)cc3)no2)CC1 | inconclusive: 5.01 µM [activator, partial curve, poor fit]
49 | CCCN(CC(=O)Nc1ccccc1C)C(=O)/C=C/c1ccc(S(=O)(=O)N2CCCCCC2)cc1 | inactive
50 | O=C(NC(=S)Nc1ccc(CN2CCOCC2)cc1)c1ccc(-c2ccc(Br)cc2)o1 | inconclusive: 2.82 µM [activator, single point]
51 | Cc1ccsc1C1C(C#N)=C(N)N(N(C)C)C2=C1C(=O)CC(C)(C)C2 (stereo not drawn) | inconclusive: 20 µM [inhibitor, single point]
52 | COc1ccccc1-c1c(C(F)(F)F)oc2cc(OCC(=O)Nc3ccccc3C(F)(F)F)ccc2c1=O | inactive
53 | COc1ccc(Nc2nnc(-c3ccc(C)c(S(=O)(=O)N4CCOCC4)c3)c3ccccc23)cc1 | inconclusive: 35.5 µM [inhibitor, single point]
54 | Cc1cccc(NC(=O)c2c(Br)sc3c2CCCC3)c1 | inactive
55 | CC(=O)c1cccc(OCCCOc2cccc3cccnc23)c1 | inactive
56 | CC1CC(C)CN(S(=O)(=O)c2ccc3c(c2)oc(=O)n3CC(=O)NCc2cccnc2)C1 (stereo not drawn) | inconclusive: 12.6 µM [inhibitor, single point]
57 | Cc1nc(NNC(=O)c2ccc(Cl)cc2Cl)cc(-c2ccccc2)n1 | inconclusive: 0.112 µM [activator, full curve, poor fit]
58 | CCOc1ccc(NS(=O)(=O)c2ccc(C(=O)N(C)Cc3cccc(OC)c3OC)cc2)cc1 | inconclusive: 7.94 µM [inhibitor, partial curve, poor fit]
59 | CCOc1ccc(S(=O)(=O)NCCC(=O)N2CCN(c3ccc(OC)cc3)CC2)cc1 | inconclusive: 10 µM [inhibitor, partial curve]
60 | Cc1ccc(C(=O)/C=C/Nc2ccccn2)cc1 | active: 0.631 µM
61 | CC(CCc1ccccc1)NC(=O)COC(=O)c1cccc2ccccc12 (stereo not drawn) | inconclusive: 23.1 µM [inhibitor, partial curve, poor fit]
62 | COc1ccccc1CN(C)C(=O)c1ccc(S(=O)(=O)Nc2c(C)n(C)n(-c3ccccc3)c2=O)cc1 | inconclusive: 10 µM [inhibitor, partial curve, poor fit]
63 | CCCCCOc1ccc(C(=O)N(Cc2ccccc2)C2CCS(=O)(=O)C2)cc1 (stereo not drawn) | inconclusive: 7.94 µM [inhibitor, full curve, poor fit]
64 | Cc1cc(NC2CCCCC2)nc(NCc2ccccc2)n1 | active: 23.1 µM
65 | CCOC(=O)c1cn[nH]c1NC(=S)Nc1ccc(Cl)cc1 | inconclusive: 22.4 µM [inhibitor, single point]
66 | CC1S/C(=C(\C#N)C(=O)NCc2ccco2)N(c2ccc(F)cc2)C1=O (stereo not drawn) | inconclusive: 5.62 µM [activator, single point]
67 | COc1ccccc1OCCC(=O)OCC(=O)Nc1ccc2c(c1)OCO2 | inactive
68 | COc1ccc(-c2nnc(SC(=O)N3c4ccccc4Sc4ccccc43)o2)cc1 | inconclusive: 14.6 µM [inhibitor, partial curve, poor fit]
